This experiment has as its target T1, purinergic P2X3 receptor (mouse (endogenous in DRG)) (UniProt Q3UR32).
T1 sequence: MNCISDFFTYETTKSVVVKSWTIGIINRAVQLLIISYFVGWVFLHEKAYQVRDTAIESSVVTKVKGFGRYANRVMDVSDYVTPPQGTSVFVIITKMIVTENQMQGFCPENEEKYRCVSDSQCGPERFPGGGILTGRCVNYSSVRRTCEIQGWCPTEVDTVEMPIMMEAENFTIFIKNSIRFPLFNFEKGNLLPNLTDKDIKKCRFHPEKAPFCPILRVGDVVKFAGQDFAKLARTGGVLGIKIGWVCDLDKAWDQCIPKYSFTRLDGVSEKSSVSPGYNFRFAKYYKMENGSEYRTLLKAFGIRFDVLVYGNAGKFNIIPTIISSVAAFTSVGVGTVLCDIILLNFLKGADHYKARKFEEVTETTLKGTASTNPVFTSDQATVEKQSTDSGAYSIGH
Put plainly: affinity purification with mass spectrometry; anti-P2X3R immunoprecipitates from the DRG of 8-week naive mice, LC-MS/MS; hits with fold change > 2.

These are yes or no findings as the source states them, for the method shown. In cells and extracts the contact can be indirect. These calls come from enrichment with a bait or labelling near it, and not all partners need be listed.

B1: periaxin (protein, UniProt O55103 1-1391)
chain: MEARSRSAEELRRAELVEIIVETEAQTGVSGFNVAGGGKEGIFVRELREDSPAAKSLSLQEGDQLLSARVFFENFKYEDALRLLQCAEPYKVSFCLKRTVPTGDLALRPGTVSGYEMKGPRAKVAKLNIQSLAPVKKKKMVTGALGTPADLAPVDVEFSFPKFSRLRRGLKAEAVKGPVPAAPARRRLQLPRLRVREVAEEAQVARMAAAAPPPRKAKAEAEAATGAGFTAPQIELVGPRLPSAEVGVPQVSVPKGTPSTEAASGFALHLPTLGLGAPAAPAVEPPATGIQVPQVELPTLPSLPTLPTLPCLDTQEGAAVVKVPTLDVAAPSMGVDLALPGAEVEAQGEVPEVALKMPRLSFPRFGIRGKEATEAKVVKGSPEAKAKGPRLRMPTFGLSLLEPRPSGPEAVAESKLKLPTLKMPSFGIGVAGPEVKAPTGPEVKLPKVPEVKLPKVPEAAIPDVQLPEVQLPKMSDMKLPKIPEMVVPDVRLPEVQLPKVPEMKVPEMKLPKWPEMAVPDVHLPDVQLPKVPEMKLPKVPEMAVPDVHLPDVQLPKVPEMKLPEMKLPKVPEMAVPDVRLPEVQLPKVSEVKLPKMPEMAVPDVHLPELQLPKMSEVKLPKMPEMAVPDVRLPEVQLPKVSEMKLPKMPEMTMPDIRLPEVQLPKVPDIKLPEMKLPEIKLPKVPDMAVPDVPLPELQLPKVSDIRLPEMQVSQVPEVQLPKMPEMKLSKVPEVQRKSAGAEQAKGTEFSFKLPKMTMPKLGKVGKPGEASIEVPDKLMTLPCLQPEVGTEASHVGVPSLSLPSVELDLPGALGLEGQVQEAVPGKVEKPEGPRVAVGVGEVGFRVPSVEIVTPQLPTVEVEKEQLEMVEMKVKPSSKFSLPKFGLSGPKAVKGEVEGPGRATKLKVSKFTISLPKARAGTEAEAKGAGEAGLLPALDLSIPQLSLDAQLPSGKVEVADSKPKSSRFALPKFGVKGRDSEADVLVAGEAELEGKGWGWDGKVKMPKLKMPSFGLSRGKEAETQDGRVSPGEKLEAIAGQLKIPAVELVTPGAQETEKVTSGVKPSGLQVSTTGQVVAEGQESVQRVSTLGISLPQVELASFGEAGPEIVAPSAEGTAGSRVQVPQVMLELPGTQVAGGDLLVGEGIFKMPTVTVPQLELDVGLGHEAQAGEAAKSEGGIKLKLPTLGTGSRGEGVEPQGPEAQRTFHLSLPDVELTSPVSSHAEYQVVEGDGDGGHKLKVRLPLFGLAKAKEGIEVGEKVKSPKLRLPRVGFSQSESVSGEGSPSPEEEEEGSGEGASSRRGRVRVRLPRVGLASPSKVSKGQEGDATSKSPVGEKSPKFRFPRVSLSPKARSGSRDREEGGFRVRLPSVGFSETAVPGSTRIEGTQAAAI
On to B1, for which the binding result is given as “binds”.

These data come from article PMC12536475.
